No constants are given. Whether binding was seen depends on the method and setting. In cells and extracts the contact can be indirect. Some results given as binding are weak or reduced against the parent protein; the word gives no strength.
Biological target: Dynamin-related protein 1 (rat (endogenous in primary cortical neurons)) (UniProt O35303)
Assay: co-IP; mitochondrial or cytosolic fractions of primary cortical neurons incubated 4 h at 4°C with protein A/G PLUS agarose carrying 2 μg anti-PKCδ or anti-Drp1 antibody; blotted with anti-PKCδ and anti-Drp1; IgG as negative control; normal conditions, H2O2 (100 μM, 6 h), and pretreatment with YQFM (400 μg/ml), rottlerin (1 μM) or Mdivi-1 (25 μM)

By UniProt entry, the sequences of proteins in these tests, tags left out.
UniProt O35303: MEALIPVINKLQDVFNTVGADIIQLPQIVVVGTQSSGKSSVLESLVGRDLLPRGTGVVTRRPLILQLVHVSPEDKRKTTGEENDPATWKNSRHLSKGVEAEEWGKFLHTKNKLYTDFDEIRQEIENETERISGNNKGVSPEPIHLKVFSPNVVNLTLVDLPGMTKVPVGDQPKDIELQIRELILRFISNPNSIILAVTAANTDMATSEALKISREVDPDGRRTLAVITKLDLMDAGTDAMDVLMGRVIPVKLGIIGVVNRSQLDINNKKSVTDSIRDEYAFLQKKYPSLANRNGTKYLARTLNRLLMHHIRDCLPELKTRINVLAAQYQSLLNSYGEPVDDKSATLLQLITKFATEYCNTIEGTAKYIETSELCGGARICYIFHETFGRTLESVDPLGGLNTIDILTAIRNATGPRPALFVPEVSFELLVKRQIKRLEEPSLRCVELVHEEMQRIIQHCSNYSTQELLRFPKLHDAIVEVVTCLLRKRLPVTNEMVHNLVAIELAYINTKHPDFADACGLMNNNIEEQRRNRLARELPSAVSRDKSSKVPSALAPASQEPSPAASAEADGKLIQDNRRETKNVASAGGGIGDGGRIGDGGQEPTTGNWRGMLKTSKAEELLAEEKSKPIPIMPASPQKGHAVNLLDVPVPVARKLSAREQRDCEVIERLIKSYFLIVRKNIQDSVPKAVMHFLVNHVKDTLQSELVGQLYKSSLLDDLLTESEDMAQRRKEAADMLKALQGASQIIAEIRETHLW
UniProt P09215: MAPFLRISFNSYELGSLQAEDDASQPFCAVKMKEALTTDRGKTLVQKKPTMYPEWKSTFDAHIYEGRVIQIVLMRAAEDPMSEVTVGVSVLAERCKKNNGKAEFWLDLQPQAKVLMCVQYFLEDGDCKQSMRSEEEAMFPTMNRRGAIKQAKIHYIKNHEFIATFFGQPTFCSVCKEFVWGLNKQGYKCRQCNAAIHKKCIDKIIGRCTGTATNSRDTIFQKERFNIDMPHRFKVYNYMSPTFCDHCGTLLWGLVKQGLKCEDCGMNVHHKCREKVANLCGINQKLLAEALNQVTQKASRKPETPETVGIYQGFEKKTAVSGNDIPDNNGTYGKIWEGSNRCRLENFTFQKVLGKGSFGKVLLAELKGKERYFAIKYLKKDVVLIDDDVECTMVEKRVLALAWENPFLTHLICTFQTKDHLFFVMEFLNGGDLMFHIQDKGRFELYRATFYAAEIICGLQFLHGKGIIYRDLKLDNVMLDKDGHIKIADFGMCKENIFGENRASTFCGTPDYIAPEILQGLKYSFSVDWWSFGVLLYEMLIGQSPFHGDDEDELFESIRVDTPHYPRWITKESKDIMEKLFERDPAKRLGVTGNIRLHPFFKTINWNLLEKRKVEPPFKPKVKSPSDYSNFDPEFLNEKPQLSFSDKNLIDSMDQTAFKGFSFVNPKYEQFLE

binding: binds
Substance: Protein kinase C-delta (from UniProt P09215 1-673) (enzyme)

Reference: paper PMC5757147
